# Measured data: PubChem BioAssay AID1159584 (Peter MacCallum Cancer Centre, 2016)
# Aim: 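Knock-downs that harm CDH1-null cells more than parental MCF10A cells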 (primary screen)
# Cells: human MCF10A breast epithelial cells, parental and CDH1-null
# Reagent: siRNA against human genes
# Read-out: 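Cell viability by CellTiter-Glo ATP luminescence, each line scaled to the mean of mock wells across plates, then CDH1-null over parental ratio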
# Scale: CDH1-null / parental viability ratio: higher = CDH1-null cells survive relatively better than parental
# The whole screen tested about 18,000 reagents; shown is a part drawn at random. Further read-outs or replicates are left out here. Not given: the amount of reagent, the time to read-out.
Target gene,CDH1-null / parental viability ratio
HMOX1,0.93
BAGE5,1.03
MILR1,0.65
RECQL5,0.87
NFKB1,0.87
ZNF705A,1
KCNJ15,1.46
JPH2,0.78
SUOX,1.12
MRPS18A,0.83
WDR91,1.02
MPP7,1.05
MEOX1,1.18
TMEM70,1.01
PRICKLE4,1.01
IL13RA2,0.83
TFR2,1.32
FECH,1
MYPOP,1.31
KCNN1,1.19
CYP4A11,1.3
CELSR2,0.87
SLC35D3,0.94
URB2,0.96
TSPAN10,0.99
ENOSF1,0.8
ODF2,1.17
OR10J3,1.39
LY6S-AS1,1.27
TREML1,1.35
PNPLA2,1.24
ZNF485,0.8
RAPSN,1.03
C2CD2,1
U2AF1,1.38
CEACAM3,1.48
HSPA1B,0.87
HIBCH,0.98
H2AC6,0.78
GPRIN3,1.11
PDZD9,0.96
STARD7,0.84
TIMM29,0.66
TMEM196,1.06
HOXA2,1.11
PLEK,0.91
VCAM1,1.13
RAPGEF4,1.01
FAM161B,0.83
RNH1,0.99
AP4E1,1.21
PTH,1.06
ZC3H13,1.01
NRDC,0.79
DRC7,1
OR2T2,1.19
ENTPD8,1.55
TYMS,1.21
SHPK,0.97
SLC2A11,0.92
CDH19,1.07
SPCS1,1.06
SSRP1,1.22
NEUROD2,0.93
CPSF1,1.03
EXOSC3,1.01
TPGS1,1.24
UFD1,1.16

Records above whose target name begins with T or t (8):
Target gene,CDH1-null / parental viability ratio
TMEM70,1.01
TFR2,1.32
TSPAN10,0.99
TREML1,1.35
TIMM29,0.66
TMEM196,1.06
TYMS,1.21
TPGS1,1.24
